Results deposited as PubChem BioAssay AID1259308 (NCATS, 2017).
Here is one part, drawn at random, of about 59,000 reagents tested. About 1,510 of them (2.6%) count as active. 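Calls use total luciferase alone and ignore viability, so some active siRNAs may act by altering cell number.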 Unmarked entries are inactive. The numbers tell different reagents against one gene apart. No sequences are given here.

- Test: 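Knock-downs that increase output of a recombinant reporter protein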 (primary screen)
- Cell system: human HEK293 embryonic kidney cells stably expressing firefly luciferase (HEK-CMV-Luc2-Hygro)
- Knock-down reagent: single siRNA against human genes, 0.8 pmol siRNA per well
- Duration: 72 h
- Read-out: 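Reporter luminescence and viable-cell signal on separate replicate plates, given as percent of non-targeting control and median/MAD z-scores, plus per-cell luciferase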
- Scale: total luciferase, z-score and total luciferase, % of control: higher = more reporter protein produced; luciferase per cell, z-score: higher = more reporter output per viable cell; viable cells, % of control: higher = more viable cells
- Call rule: 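An siRNA counts as active if its total luciferase robust z-score exceeds 3; genes with two or more such siRNAs out of three were retested with fresh siRNAs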
- Meaning of the calls: active = raised luciferase; inactive = no rise

gene | siRNA no. | total luciferase, z-score | total luciferase, % of control | luciferase per cell, z-score | viable cells, % of control
TNFSF18 | 1 | -0.294 | 76 | -0.493 | 96.8
TNFSF18 | 2 | -0.865 | 64.7 | -0.332 | 78.9
TNFSF18 | 3 | -1.02 | 61.7 | -1.68 | 107
GJB2 | 1 | 0.282 | 87.5 | -0.00433 | 97.9
GJB2 | 2 | -0.311 | 75.7 | 0.35 | 77.2
GJB2 | 3 | -0.116 | 79.6 | -0.277 | 95.7
SHROOM3 | 1 | -1.42 | 53.7 | -1.78 | 96
SHROOM3 | 2 | -0.308 | 75.8 | -0.494 | 96.4
SHROOM3 | 3 | -0.52 | 71.6 | 0.314 | 73.6
CCL22 | 1 | -0.385 | 74.2 | -0.48 | 94.1
CCL22 | 2 | -0.984 | 62.3 | -1.05 | 91.7
CCL22 | 3 | -0.635 | 69.3 | -1.05 | 102
FAM156A | 1 | -1.33 | 55.5 | -1.2 | 85
FAM156A | 2 | -0.0236 | 81.4 | -0.115 | 93.8
FAM156A | 3 | -0.225 | 77.4 | -0.255 | 92.5
FGF13 | 1 | 2.25 | 127 | 1.36 | 99
FGF13 | 2 | 2.88 | 139 | 2.1 | 89.3
FGF13 | 3 | -1.26 | 56.9 | -1.84 | 103
FGF13 | 4 | 0.159 | 85 | 0.47 | 84
FGF13 | 5 | -0.0712 | 80.5 | -0.0723 | 91.6
FGF13 | 6 | 1.71 | 116 | 2.67 | 64.1
FXYD7 | 1 | 0.0834 | 83.5 | -0.0487 | 94.6
FXYD7 | 2 | -0.323 | 75.5 | -0.286 | 90.9
FXYD7 | 3 | 1.44 | 110 | 0.481 | 109
NSMCE3 | 1 | 1.62 | 114 | 2.28 | 70
NSMCE3 | 2 | 0.93 | 100 | 0.788 | 91.2
NSMCE3 | 3 | 0.588 | 93.6 | 0.859 | 83.4
CLEC12B | 1 | 0.3 | 87.9 | 1.57 | 65
CLEC12B | 2 | -0.287 | 76.2 | -0.274 | 91.5
CLEC12B | 3 | -0.856 | 64.9 | -0.925 | 92.4
CFAP77 | 1 | 0.256 | 87 | -0.0822 | 99.3
CFAP77 | 2 | -0.108 | 79.7 | -0.467 | 101
CFAP77 | 3 | 0.3 | 87.8 | -0.473 | 111
LINC01973 | 1 | -1.15 | 59 | -1.19 | 90
LINC01973 | 2 | 3.07 (active) | 143 | 2.94 | 73.6
LINC01973 | 3 | 0.142 | 84.7 | 0.0641 | 93.1
TPM1 | 1 | -0.413 | 73.7 | -0.407 | 91.6
TPM1 | 2 | -0.00945 | 81.7 | -0.555 | 106
TPM1 | 3 | 0.516 | 92.1 | -0.323 | 112
NPY4R | 1 | 1.71 | 116 | 1.39 | 89.8
NPY4R | 2 | 1.29 | 108 | 0.792 | 97.6
NPY4R | 3 | -1.13 | 59.4 | -1.47 | 97.8
CABLES1 | 1 | 0.0307 | 82.5 | 0.0135 | 91.9
CABLES1 | 2 | 1.7 | 116 | 0.953 | 101
CABLES1 | 3 | -0.904 | 63.9 | -1.7 | 112
RPL31P57 | 1 | 0.389 | 89.6 | -0.262 | 107
RPL31P57 | 2 | 1.26 | 107 | 0.903 | 94.2
RPL31P57 | 3 | 0.205 | 86 | 0.314 | 88.4
LOC729296 | 1 | 1.18 | 105 | 0.967 | 91.3
LOC729296 | 2 | -0.0416 | 81.1 | -0.224 | 96.1
LOC729296 | 3 | -0.0842 | 80.2 | -0.748 | 109
OR5AP2 | 1 | 2.26 | 127 | 2.9 | 66.1
OR5AP2 | 2 | -3.28 | 16.7 | -3.16 | 42.8
OR5AP2 | 3 | -0.456 | 72.8 | -0.658 | 96.8
SEC61A2 | 1 | 1.72 | 116 | 1.44 | 88.8
SEC61A2 | 2 | 1.77 | 117 | 1.78 | 81.9
SEC61A2 | 3 | -0.0767 | 80.4 | -0.801 | 111

9 consecutive entries from above, quoted:
gene | siRNA no. | total luciferase, z-score | total luciferase, % of control | luciferase per cell, z-score | viable cells, % of control
LINC01973 | 3 | 0.142 | 84.7 | 0.0641 | 93.1
TPM1 | 1 | -0.413 | 73.7 | -0.407 | 91.6
TPM1 | 2 | -0.00945 | 81.7 | -0.555 | 106
TPM1 | 3 | 0.516 | 92.1 | -0.323 | 112
NPY4R | 1 | 1.71 | 116 | 1.39 | 89.8
NPY4R | 2 | 1.29 | 108 | 0.792 | 97.6
NPY4R | 3 | -1.13 | 59.4 | -1.47 | 97.8
CABLES1 | 1 | 0.0307 | 82.5 | 0.0135 | 91.9
CABLES1 | 2 | 1.7 | 116 | 0.953 | 101
